Patent US20250241889A1, “FORTIFIED WATER” (Lovaness Limited, priority 2021, published 2025)

Test: Blind sensorial perception testing of catechin, epicatechin and gallocatechin fortified water (Example 5)
Settings: for Colour Rating (score) / Odour Rating (score) / Taste Rating (score): 10-point scale, 10 no differences vs pure water, 0 intolerable changes

SMILES: Oc1cc(O)c2c(c1)O[C@H](c1cc(O)c(O)c(O)c1)[C@@H](O)C2 [Gallocatechin, gallocatechin]
- Colour Rating (descriptor) (0.05 mg/ml in deionized water): No colour
- Odour Rating (descriptor) (0.05 mg/ml in deionized water): No odour
- Taste Rating (descriptor) (0.05 mg/ml in deionized water): No taste
- Colour Rating (score) (0.05 mg/ml): (10.0)
- Odour Rating (score) (0.05 mg/ml): (10.0)
- Taste Rating (score) (0.05 mg/ml): (10.0)
- Colour Rating (descriptor) (0.1 mg/ml in deionized water): No colour
- Odour Rating (descriptor) (0.1 mg/ml in deionized water): No odour
- Taste Rating (descriptor) (0.1 mg/ml in deionized water): No taste
- Colour Rating (score) (0.1 mg/ml): (10.0)
- Odour Rating (score) (0.1 mg/ml): (10.0)
- Taste Rating (score) (0.1 mg/ml): (10.0)
- Colour Rating (descriptor) (0.5 mg/ml in deionized water): No colour
- Odour Rating (descriptor) (0.5 mg/ml in deionized water): No odour
- Taste Rating (descriptor) (0.5 mg/ml in deionized water): No taste
- Colour Rating (score) (0.5 mg/ml): (10.0)
- Odour Rating (score) (0.5 mg/ml): (10.0)
- Taste Rating (score) (0.5 mg/ml): (10.0)
- Colour Rating (descriptor) (1.0 mg/ml in deionized water): No colour
- Odour Rating (descriptor) (1.0 mg/ml in deionized water): No odour
- Taste Rating (descriptor) (1.0 mg/ml in deionized water): Light biter
- Colour Rating (score) (1.0 mg/ml): (10.0)
- Odour Rating (score) (1.0 mg/ml): (10.0)
- Taste Rating (score) (1.0 mg/ml): (8.0)
- Colour Rating (descriptor) (2.0 mg/ml in deionized water): No colour
- Odour Rating (descriptor) (2.0 mg/ml in deionized water): No odour
- Taste Rating (descriptor) (2.0 mg/ml in deionized water): Bitter
- Colour Rating (score) (2.0 mg/ml): (10.0)
- Odour Rating (score) (2.0 mg/ml): (10.0)
- Taste Rating (score) (2.0 mg/ml): (6.0)
- Difference between fortified water and control (pure) water, summary of blind testing (0.05-2.0 mg/ml): Difference in taste only becomes discernible at higher concentrations
